{"sequences": {"note": "Amino acid sequences for entries named in this document (tags omitted).", "UniProt P25490": "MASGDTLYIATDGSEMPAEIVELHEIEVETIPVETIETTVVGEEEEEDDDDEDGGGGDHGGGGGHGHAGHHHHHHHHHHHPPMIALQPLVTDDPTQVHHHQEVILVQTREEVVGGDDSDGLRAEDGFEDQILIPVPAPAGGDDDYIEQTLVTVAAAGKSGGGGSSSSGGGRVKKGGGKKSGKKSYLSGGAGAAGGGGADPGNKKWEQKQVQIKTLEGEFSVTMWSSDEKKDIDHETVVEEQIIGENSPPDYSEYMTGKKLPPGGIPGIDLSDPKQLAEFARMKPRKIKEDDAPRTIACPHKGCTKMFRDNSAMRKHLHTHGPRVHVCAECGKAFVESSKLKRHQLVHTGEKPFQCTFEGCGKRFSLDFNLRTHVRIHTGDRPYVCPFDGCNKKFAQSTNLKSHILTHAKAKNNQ"}, "source": "paper PMC8742353", "binders": {"B1": {"name": "G-rich sequence binding factor 1 (protein, UniProt Q12849 118-480)", "chain": "SQESKTTYLEDLPPPPEYELAPSKLEEEVDDVFLIRAQGLPWSCTMEDVLNFFSDCRIRNGENGIHFLLNRDGKRRGDALIEMESEQDVQKALEKHRMYMGQRYVEVYEINNEDVDALMKSLQVKSSPVVNDGVVRLRGLPYSCNEKDIVDFFAGLNIVDITFVMDYRGRRKTGEAYVQFEEPEMANQALLKHREEIGNRYIEIFPSRRNEVRTHVGSYKGKKIASFPTAKYITEPEMVFEEHEVNEDIQPMTAFESEKEIELPKEVPEKLPEAADFGTTSSLHFVHMRGLPFQANAQDIINFFAPLKPVRITMEYSSSGKATGEADVHFETHEDAVAAMLKDRSHVHHRYIELFLNSCPKGK"}}, "molecular_target": "Yin-Yang 1 (human (endogenous in HCC cells)) (UniProt P25490)", "experiment": "co-IP; endogenous proteins in HCC cells; normal rabbit IgG and anti-YY1 antibodies used (told under the ChIP heading of the methods); no further conditions given", "note": "No constants are given. Whether binding was seen depends on the method and setting. Binding seen in cells or lysates may run through a third protein. Some entries that bind do so weakly or less than the wild type."}
{"binder": "B1", "values": [{"measurement": "binding", "value": "binds"}]}
